No constants are given. Whether binding was seen depends on the method and setting. Binding seen in cells or lysates may run through a third protein. Binding can be weak; no strength is given.
Target: PACSIN2 wild type, overexpressed (human) (UniProt Q9UNF0)
Experiment: co-IP; K562 cells transfected with expression plasmids, lysed after 24 h in NETN buffer (150 mM NaCl, 0.5 mM EDTA, 50 mM Tris pH 7.5, 0.5% NP-40); streptavidin-coated beads or protein A-agarose with primary antibody; western blot

Sequences of proteins named here, by UniProt entry; tags and fusion partners are left off. A change or cut given only in a name is not applied to a line headed by its entry.
UniProt Q9UNF0: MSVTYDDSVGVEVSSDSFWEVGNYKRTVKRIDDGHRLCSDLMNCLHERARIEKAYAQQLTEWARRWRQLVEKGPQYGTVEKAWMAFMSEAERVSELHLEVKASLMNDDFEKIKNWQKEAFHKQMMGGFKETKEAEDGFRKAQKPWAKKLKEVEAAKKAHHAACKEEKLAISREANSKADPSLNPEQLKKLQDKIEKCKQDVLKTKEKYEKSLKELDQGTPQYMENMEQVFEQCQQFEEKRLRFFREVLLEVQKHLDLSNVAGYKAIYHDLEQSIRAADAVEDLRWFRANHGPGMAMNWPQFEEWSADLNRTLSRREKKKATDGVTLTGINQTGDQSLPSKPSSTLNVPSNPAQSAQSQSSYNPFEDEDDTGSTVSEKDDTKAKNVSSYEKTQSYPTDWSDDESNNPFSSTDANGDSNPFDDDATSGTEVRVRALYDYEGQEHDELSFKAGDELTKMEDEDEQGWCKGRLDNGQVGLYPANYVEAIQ
UniProt Q53SF7: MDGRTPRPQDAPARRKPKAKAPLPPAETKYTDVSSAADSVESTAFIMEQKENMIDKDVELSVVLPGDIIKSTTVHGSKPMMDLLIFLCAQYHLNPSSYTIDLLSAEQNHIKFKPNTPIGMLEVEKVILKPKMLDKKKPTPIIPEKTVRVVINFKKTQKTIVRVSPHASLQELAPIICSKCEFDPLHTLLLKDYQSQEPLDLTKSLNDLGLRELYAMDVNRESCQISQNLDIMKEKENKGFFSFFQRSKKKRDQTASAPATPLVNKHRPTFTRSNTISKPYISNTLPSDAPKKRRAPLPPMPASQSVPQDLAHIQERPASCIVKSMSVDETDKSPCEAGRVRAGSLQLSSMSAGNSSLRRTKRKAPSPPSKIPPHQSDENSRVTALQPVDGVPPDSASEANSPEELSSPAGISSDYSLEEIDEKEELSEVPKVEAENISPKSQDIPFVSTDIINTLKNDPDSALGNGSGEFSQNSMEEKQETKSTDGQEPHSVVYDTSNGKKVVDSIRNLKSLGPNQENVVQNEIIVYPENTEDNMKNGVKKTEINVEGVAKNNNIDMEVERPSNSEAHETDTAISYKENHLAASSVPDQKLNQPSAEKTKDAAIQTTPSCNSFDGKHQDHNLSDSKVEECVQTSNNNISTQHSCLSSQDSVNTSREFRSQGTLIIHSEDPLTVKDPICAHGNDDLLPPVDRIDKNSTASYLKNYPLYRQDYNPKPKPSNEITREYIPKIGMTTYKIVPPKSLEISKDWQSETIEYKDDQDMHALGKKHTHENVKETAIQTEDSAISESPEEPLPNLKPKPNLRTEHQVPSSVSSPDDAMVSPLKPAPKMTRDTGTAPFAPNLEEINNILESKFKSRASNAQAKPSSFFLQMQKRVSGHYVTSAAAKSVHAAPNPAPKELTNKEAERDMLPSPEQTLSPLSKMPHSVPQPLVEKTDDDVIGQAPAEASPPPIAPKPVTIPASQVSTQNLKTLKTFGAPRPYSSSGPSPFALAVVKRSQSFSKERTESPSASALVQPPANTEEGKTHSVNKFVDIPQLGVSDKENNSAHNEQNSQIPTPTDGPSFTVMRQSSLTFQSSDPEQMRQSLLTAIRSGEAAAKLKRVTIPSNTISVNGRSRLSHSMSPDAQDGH

Row | binding | Substance
1 | binds | Cobll1 D2 (internal deletion mutant) (from UniProt Q53SF7)
2 | binds | Cobll1 D3 (internal deletion mutant) (from UniProt Q53SF7)
3 | binds | Cobll1 D4 (internal deletion mutant) (from UniProt Q53SF7)
4 | no binding | Cobll1-3A mutant (all three proline-rich motifs mutated to alanine) (from UniProt Q53SF7)

Reference: article PMC9636508
